# Experimental data from publication PMC4335056.
# No constants are given. Whether binding was seen depends on the method and setting. In cells and extracts the contact can be indirect. A yes stands for co-enrichment or nearness to the bait. Other partners may have been found. Sequences can lack the tags named with a protein.
# T1: TwinkleFLAG (mtDNA helicase Twinkle with a FLAG tag at its C-terminus) (UniProt Q96RR1)
# T1 sequence: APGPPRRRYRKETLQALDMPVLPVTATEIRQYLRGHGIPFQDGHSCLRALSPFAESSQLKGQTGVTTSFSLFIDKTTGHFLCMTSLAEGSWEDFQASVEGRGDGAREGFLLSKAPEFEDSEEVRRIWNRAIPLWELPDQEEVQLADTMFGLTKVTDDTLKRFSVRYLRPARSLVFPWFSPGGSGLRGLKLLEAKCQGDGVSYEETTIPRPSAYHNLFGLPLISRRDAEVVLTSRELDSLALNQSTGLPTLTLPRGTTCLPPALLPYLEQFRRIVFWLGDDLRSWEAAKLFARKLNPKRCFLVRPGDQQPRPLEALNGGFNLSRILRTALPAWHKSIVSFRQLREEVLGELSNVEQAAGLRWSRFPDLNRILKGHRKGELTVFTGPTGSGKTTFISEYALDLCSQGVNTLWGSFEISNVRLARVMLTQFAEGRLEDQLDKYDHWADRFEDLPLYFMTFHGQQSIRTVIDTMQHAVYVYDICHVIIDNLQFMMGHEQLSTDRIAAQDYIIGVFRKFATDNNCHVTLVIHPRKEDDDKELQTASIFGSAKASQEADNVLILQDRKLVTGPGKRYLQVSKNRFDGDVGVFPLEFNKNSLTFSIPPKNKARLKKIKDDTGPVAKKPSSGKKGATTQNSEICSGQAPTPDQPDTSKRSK
# B1: MTIF2 (protein, UniProt P46199 30-727)
# chain: LRQWRHGFSSAYPVWTAQLCAWPWPTDVLTGAALSQYRLLVTKKEEGPWKSQLSSTKSKKVVEVWIGMTIEELARAMEKNTDYVYEALLNTDIDIDSLEADSHLDEVWIKEVITKAGMKLKWSKLKQDKVRKNKDAVRRPQADPALLTPRSPVVTIMGHVDHGKTTLLDKFRKTQVAAVETGGITQHIGAFLVSLPSGEKITFLDTPGHAAFSAMRARGAQVTDIVVLVVAADDGVMKQTVESIQHAKDAQVPIILAVNKCDKAEADPEKVKKELLAYDVVCEDYGGDVQAVPVSALTGDNLMALAEATVALAEMLELKADPNGPVEGTVIESFTDKGRGLVTTAIIQRGTLRKGSVLVAGKCWAKVRLMFDENGKTIDEAYPSMPVGITGWRDLPSAGEEILEVESEPRAREVVDWRKYEQEQEKGQEDLKIIEEKRKEHKEAHQKAREKYGHLLWKKRSILRFLERKEQIPLKPKEKRERDSNVLSVIIKGDVDGSVEAILNIIDTYDASHECELELVHFGVGDVSANDVNLAETFDGVIYGFNVNAGNVIQQSAAKKGVKIKLHKIIYRLVEDLQEELSSRLPCAVEEHPVGEASILATFSVTEGKKKVPVAGCRVQKGQLEKQKKFKLTRNGHVIWKGSLTSLKHHKDDISIVKTGMDCGLSLDEDNMEFQVGDRIVCYEEKQIQAKTSWDPGF
# B2: MTRF1 (protein, UniProt O75570 62-445)
# chain: CHQDTKMLWKHKALQKYMENLSKEYQTLEQCLQHIPVNEENRRSLNRRHAELAPLAAIYQEIQETEQAIEELESMCKSLNKQDEKQLQELALEERQTIDQKINMLYNELFQSLVPKEKYDKNDVILEVTAGRTTGGDICQQFTREIFDMYQNYSCYKHWQFELLNYTPADYGGLHHAAARISGDGVYKHLKYEGGIHRVQRIPEVGLSSRMQRIHTGTMSVIVLPQPDEVDVKLDPKDLRIDTFRAKGAGGQHVNKTDSAVRLVHIPTGLVVECQQERSQIKNKEIAFRVLRARLYQQIIEKDKRQQQSARKLQVGTRAQSERIRTYNFTQDRVSDHRIAYEVRDIKEFLCGGKGLDQLIQRLLQSADEEAIAELLDEHLKSAK
# B3: DDX28 (protein, UniProt Q9NUL7 1-540)
# chain: MALTRPVRLFSLVTRLLLAPRRGLTVRSPDEPLPVVRIPVALQRQLEQRQSRRRNLPRPVLVRPGPLLVSARRPELNQPARLTLGRWERAPLASQGWKSRRARRDHFSIERAQQEAPAVRKLSSKGSFADLGLEPRVLHALQEAAPEVVQPTTVQSSTIPSLLRGRHVVCAAETGSGKTLSYLLPLLQRLLGQPSLDSLPIPAPRGLVLVPSRELAQQVRAVAQPLGRSLGLLVRDLEGGHGMRRIRLQLSRQPSADVLVATPGALWKALKSRLISLEQLSFLVLDEADTLLDESFLELVDYILEKSHIAEGPADLEDPFNPKAQLVLVGATFPEGVGQLLNKVASPDAVTTITSSKLHCIMPHVKQTFLRLKGADKVAELVHILKHRDRAERTGPSGTVLVFCNSSSTVNWLGYILDDHKIQHLRLQGQMPALMRVGIFQSFQKSSRDILLCTDIASRGLDSTGVELVVNYDFPPTLQDYIHRAGRVGRVGSEVPGTVISFVTHPWDVSLVQKIELAARRRRSLPGLASSVKEPLPQAT
# Target: T1, TwinkleFLAG (mtDNA helicase Twinkle with a FLAG tag at its C-terminus)
# Test: cross-linking + affinity purification with mass spectrometry; whole cell 1% formaldehyde cross-linking; method B (X-ChIP): RIPA lysis, sonication, RNAse A, DNAse I and Benzonase for 30 min at 37°C, FLAG resin, RIPA washes, 3xFLAG peptide elution; Q Exactive; enriched ≥2 fold by LFQ over TwinkleFLAG -XL and mtLucFLAG +XL; mtDNA-containing cells, levels also compared with ρ° cells
row,Binder,binding
1,B1,binds
2,B2,binds
3,B3,binds
